Test results from PubChem BioAssay AID328 (DTP/NCI, 2004).
The list does not hold the whole screen: its compounds were picked by chemical class. Other doses and runs of a compound may be missing. T/C gives the treated animals as a percentage of the vehicle group. Some entries give survivors of the animals treated and no T/C: the source files T/C as zero there, which appears to mark a toxic dose or a test without result, not a measured value. Some survivor counts are full or nearly so, which does not show that the dose was tolerated: the source hardly ever lists a survival T/C far under the control, and the zero likely stands for such cases as well. Survivors were counted at the toxicity check, usually on the fifth day, unless a day is given; later deaths do not show. Schedules are NCI's codes, taken here to give the interval after Q, in days (D) or hours (H), and the number of doses after X. Where survival is the endpoint, this PubChem deposit counts one and a half times the control or more as active, and values a quarter to a half above the control carry no call in these data; other NCI protocols may use other cut-offs. Some entries were tested several times; the values are given in rising order. Some T/C values are marked as having no survivor count here; that says nothing about deaths at the dose. Some T/C values carry the count of animals alive at the toxicity check (mostly the fifth day); without a count or a note in brackets, all were alive then.

System: BDF1 mice, P388 leukemia ip, median survival T/C
Test: NCI In Vivo Anticancer Drug Screen. Data for tumor model P388 Leukemia (intraperitoneal) in B6D2F1 (BDF1) mice
Settings: T/C endpoint: median survival time, higher T/C = longer survival
Method: The antitumor activity of compounds was measured in mice bearing transplantable tumors. Survival or tumor size were measured and the results are expressed as the measurement made in the treated group (T) divided by the measurement made in the vehicle treated control group (C). The tumor model used in this assay is P388 Leukemia (intraperitoneal) in B6D2F1 (BDF1) mice

[1] = dose: 25.0 mg/kg/injection, schedule: Q01DX009 (ip), vehicle: saline
[2] = dose: 50.0 mg/kg/injection, schedule: Q04DX003 (ip), vehicle: saline
[3] = dose: 100.0 mg/kg/injection, schedule: Q04DX003 (ip), vehicle: saline
[4] = dose: 200.0 mg/kg/injection, schedule: Q04DX003 (ip), vehicle: saline
[5] = dose: 100.0 mg/kg/injection, schedule: Q04DX003 (ip), vehicle: saline with Tween-80
[6] = dose: 200.0 mg/kg/injection, schedule: Q04DX003 (ip), vehicle: saline with Tween-80
[7] = dose: 150.0 mg/kg/injection, schedule: Q04DX003 (ip), vehicle: saline with Tween-80
[8] = dose: 50.0 mg/kg/injection, schedule: Q01DX009 (ip), vehicle: saline with Tween-80
[9] = dose: 100.0 mg/kg/injection, schedule: Q01DX009 (ip), vehicle: saline with Tween-80
[10] = dose: 200.0 mg/kg/injection, schedule: Q01DX009 (ip), vehicle: Klucel (hydroxypropylcellulose) (HPC)

## Cc1cc([N+](=O)[O-])cc([N+](=O)[O-])c1O
dose: 10.0 mg/kg/injection, schedule: Q04DX003 (ip), vehicle: saline with Tween-80
  survivor count: 4 of 6
dose: 20.0 mg/kg/injection, schedule: Q04DX003 (ip), vehicle: saline with Tween-80
  survivor count: 3 of 6
dose: 40.0 mg/kg/injection, schedule: Q04DX003 (ip), vehicle: saline with Tween-80
  survivor count: 2 of 6
dose: 100.0 mg/kg/injection, schedule: Q01DX001 (ip), vehicle: Klucel (hydroxypropylcellulose) (HPC)
  survivor count: 2 of 6
dose: 200.0 mg/kg/injection, schedule: Q01DX001 (ip), vehicle: Klucel (hydroxypropylcellulose) (HPC)
  survivor count: 0 of 6
dose: 400.0 mg/kg/injection, schedule: Q01DX001 (ip), vehicle: Klucel (hydroxypropylcellulose) (HPC)
  survivor count: 0 of 6

## C1COP(OCCOP2OCCO2)O1
[1]
  T/C: 95 % of control
dose: 50.0 mg/kg/injection, schedule: Q01DX009 (ip), vehicle: saline
  T/C: 104 % of control [4 of 6 alive]
[2]
  T/C: 95 % of control
dose: 100.0 mg/kg/injection, schedule: Q01DX009 (ip), vehicle: saline
  T/C: 100 % of control [5 of 6 alive]
[3]
  T/C: 100 % of control
[4]
  survivor count: 4 of 6

## O=C(Nc1ccccc1)N(CCCl)CCCl
dose: 50.0 mg/kg/injection, schedule: Q04DX003 (ip), vehicle: saline with Tween-80
  T/C: 103 % of control [5 of 6 alive]
[5]
  T/C: 88 % of control
[6]
  T/C: 115 % of control

## N/C(=N\[N+](=O)[O-])N(CCO[N+](=O)[O-])N=O
dose: 12.0 mg/kg/injection, schedule: Q04DX003 (ip), vehicle: saline
  T/C: 159 % of control [survivor count not shown]
dose: 19.0 mg/kg/injection, schedule: Q04DX003 (ip), vehicle: saline
  T/C: 150 % of control [survivor count not shown]
dose: 29.0 mg/kg/injection, schedule: Q04DX003 (ip), vehicle: saline with Tween-80
  T/C: 140 % of control [survivor count not shown]
dose: 45.0 mg/kg/injection, schedule: Q04DX003 (ip), vehicle: saline with Tween-80
  T/C: 150 % of control [survivor count not shown]
dose: 66.0 mg/kg/injection, schedule: Q04DX003 (ip), vehicle: saline with Tween-80
  T/C: 154 % of control [survivor count not shown]
[5]
  T/C: 154 % of control [survivor count not shown]
[7]
  T/C: 154 % of control [survivor count not shown]

## O=[N+]([O-])c1ccc2cn([N+](=O)[O-])nc2c1
[5]
  survivor count: 1 of 6
[6]
  survivor count: 0 of 6
dose: 400.0 mg/kg/injection, schedule: Q04DX003 (ip), vehicle: saline with Tween-80
  survivor count: 0 of 6

## ClCCNCCCCCNCCCl
dose: 132.0 mg/kg/injection, schedule: Q04DX003 (ip), vehicle: saline
  T/C: 177 % of control
[4]
  T/C: 209 % of control
dose: 300.0 mg/kg/injection, schedule: Q04DX003 (ip), vehicle: saline
  T/C: 227 % of control

## O=C(O)c1c([N+](=O)[O-])cc([N+](=O)[O-])c(-c2c([N+](=O)[O-])cc([N+](=O)[O-])c(C(=O)O)c2[N+](=O)[O-])c1[N+](=O)[O-]
dose: 6.25 mg/kg/injection, schedule: Q01DX009 (ip), vehicle: saline
  T/C: 130 % of control [survivor count not shown]
dose: 8.3 mg/kg/injection, schedule: Q01DX009 (ip), vehicle: saline
  T/C: 104 % of control [survivor count not shown]
dose: 12.5 mg/kg/injection, schedule: Q01DX009 (ip), vehicle: saline
  T/C: 95 [survivor count not shown] and 135 % of control [survivor count not shown]
dose: 18.75 mg/kg/injection, schedule: Q01DX009 (ip), vehicle: saline
  T/C: 109 % of control [survivor count not shown]
[1]
  T/C: 130 % of control [survivor count not shown]

## Cc1c([N+](=O)[O-])cc([N+](=O)[O-])c(-c2c([N+](=O)[O-])cc([N+](=O)[O-])c(C)c2[N+](=O)[O-])c1[N+](=O)[O-]
dose: 100.0 mg/kg/injection, schedule: Q01DX009 (ip), vehicle: gum acacia
  T/C: 103 % of control [survivor count not shown]
dose: 100.0 mg/kg/injection, schedule: Q04DX003 (ip), vehicle: gum acacia
  T/C: 96 % of control [survivor count not shown]
dose: 200.0 mg/kg/injection, schedule: Q01DX009 (ip), vehicle: gum acacia
  T/C: 100 % of control [survivor count not shown]
dose: 200.0 mg/kg/injection, schedule: Q04DX003 (ip), vehicle: gum acacia
  T/C: 100 % of control [survivor count not shown]
dose: 400.0 mg/kg/injection, schedule: Q01DX009 (ip), vehicle: gum acacia
  T/C: 107 % of control [survivor count not shown]
dose: 400.0 mg/kg/injection, schedule: Q04DX003 (ip), vehicle: gum acacia
  T/C: 96 % of control [survivor count not shown]

## CN(C)Cc1cccs1.O=[N+]([O-])c1cc([N+](=O)[O-])c(O)c([N+](=O)[O-])c1
[8]
  T/C: 108 % of control [survivor count not shown]
[9]
  T/C: 108 % of control [survivor count not shown]
[5]
  T/C: 95 % of control [survivor count not shown]
[6]
  T/C: 108 % of control [survivor count not shown]

## N/C(=N\[N+](=O)[O-])N(CCCl)N=O
dose: 26.0 mg/kg/injection, schedule: Q01DX009 (ip), vehicle: saline
  T/C: 107 and 130 % of control
dose: 40.0 mg/kg/injection, schedule: Q01DX009 (ip), vehicle: saline
  T/C: 107 and 135 % of control
dose: 60.0 mg/kg/injection, schedule: Q01DX009 (ip), vehicle: saline
  T/C: 121 and 135 % of control
dose: 90.0 mg/kg/injection, schedule: Q01DX009 (ip), vehicle: saline
  T/C: 160 % of control
dose: 135.0 mg/kg/injection, schedule: Q01DX009 (ip), vehicle: saline
  T/C: 160 % of control
[10]
  T/C: 135 % of control
dose: 305.0 mg/kg/injection, schedule: Q01DX009 (ip), vehicle: Klucel (hydroxypropylcellulose) (HPC)
  T/C: 145 % of control

## C[N+](CCCl)(CCCl)Cc1ccccc1
dose: 12.5 mg/kg/injection, schedule: Q01DX001 (ip), vehicle: saline
  T/C: 100 % of control
dose: 25.0 mg/kg/injection, schedule: Q01DX001 (ip), vehicle: saline
  T/C: 100 % of control
dose: 25.0 mg/kg/injection, schedule: Q04DX003 (ip), vehicle: saline
  T/C: 109 % of control
dose: 50.0 mg/kg/injection, schedule: Q01DX001 (ip), vehicle: saline
  T/C: 108 % of control
[2]
  T/C: 90 % of control

## COc1cc([N+](=O)[O-])c2nc(C(O)C[N+](=O)[O-])ccc2c1[N+](=O)[O-] (configuration not stated)
dose: 12.5 mg/kg/injection, schedule: Q01DX009 (ip), vehicle: other
  T/C: 125 % of control
dose: 25.0 mg/kg/injection, schedule: Q01DX009 (ip), vehicle: other
  T/C: 118 % of control
dose: 50.0 mg/kg/injection, schedule: Q01DX009 (ip), vehicle: other
  T/C: 100 % of control
dose: 100.0 mg/kg/injection, schedule: Q01DX009 (ip), vehicle: other
  T/C: 98 % of control
dose: 200.0 mg/kg/injection, schedule: Q01DX009 (ip), vehicle: other
  T/C: 100 % of control

## O=C(O)/C=C\c1cccc(N(CCCl)CCCl)c1
[8]
  survivor count: 3 of 6
[9]
  survivor count: 3 of 6
[5]
  T/C: 125 % of control
dose: 132.0 mg/kg/injection, schedule: Q04DX003 (ip), vehicle: saline with Tween-80
  T/C: 166 % of control
[7]
  T/C: 145 % of control
dose: 200.0 mg/kg/injection, schedule: Q01DX009 (ip), vehicle: saline with Tween-80
  survivor count: 0 of 6

## C1CCC2(CC1)C[N+]21CCCC1
[2]
  T/C: 90 % of control
[3]
  T/C: 100 % of control
[4]
  T/C: 104 % of control

## NC(=O)c1cc(I)cc(I)c1N=NN(CCCl)CCCl
dose: 50.0 mg/kg/injection, schedule: Q01DX009 (ip), vehicle: Klucel (hydroxypropylcellulose) (HPC)
  T/C: 115 % of control
dose: 100.0 mg/kg/injection, schedule: Q01DX009 (ip), vehicle: Klucel (hydroxypropylcellulose) (HPC)
  T/C: 123 % of control
[10]
  T/C: 133 % of control
